The list is a part of this screen's results and no random one: it is rich in T/C values a quarter to a half above the control, in often repeated tests (any T/C) and in doses without a T/C. Further doses and runs are listed elsewhere. T/C: endpoint of the treated group in % of that of the vehicle group. Some doses have a count of surviving animals in place of a T/C: the source holds a T/C of zero for them, seemingly a mark for toxic or unscored doses. Some doses without a T/C left all or most animals alive at the check, yet need not have been tolerated: the source hardly ever lists a survival T/C far under the control, and the zero likely stands for such cases as well. Counts of survivors are from the toxicity check (mostly the fifth day) where no day follows; animals may have died later. Schedule codes are those of the source, taken here to give the interval after Q, in days (D) or hours (H), and the number of doses after X. Some entries were tested several times; the values are given in rising order. Some schedules carry Z or #; the key to these is not given. Some structures stand for samples that the source files as different forms (salt, stereo form or complex); doses refer to the form tested. Where survival is the endpoint, the PubChem record calls one and a half times the control and up active, and a quarter to a half above the control has no call in these data; cut-offs in other NCI protocols can differ. Some T/C values carry the count of animals alive at the toxicity check (mostly the fifth day); without a count, all were alive then.
Tested on: L1210 leukemia ip in BDF1 mice, survival T/C
Test: NCI In Vivo Anticancer Drug Screen. Data for tumor model L1210 Leukemia (intraperitoneal) in B6D2F1 (BDF1) mice
Details: T/C endpoint: mean survival time, higher T/C = longer survival
[1] = dose: 200.0 mg/kg/injection, schedule: Q01DX009 (ip), vehicle: saline with Tween-80
[2] = dose: 400.0 mg/kg/injection, schedule: Q01DX009 (ip), vehicle: saline with Tween-80
[3] = dose: 200.0 mg/kg/injection, schedule: Q01DX Z (ip), vehicle: methylcellulose (MC)
[4] = dose: 100.0 mg/kg/injection, schedule: Q01DX001 (ip), vehicle: saline
[5] = dose: 200.0 mg/kg/injection, schedule: Q01DX001 (ip), vehicle: saline
[6] = dose: 400.0 mg/kg/injection, schedule: Q01DX001 (ip), vehicle: saline
[7] = dose: 200.0 mg/kg/injection, schedule: Q01DX009 (ip), vehicle: carboxymethylcellulose (CMC)
[8] = dose: 75.0 mg/kg/injection, schedule: Q01DX009 (ip), vehicle: saline
[9] = dose: 200.0 mg/kg/injection, schedule: Q01DX009 (ip), vehicle: Klucel (hydroxypropylcellulose) (HPC)
[10] = dose: 400.0 mg/kg/injection, schedule: Q01DX009 (ip), vehicle: Klucel (hydroxypropylcellulose) (HPC)
[11] = dose: 400.0 mg/kg/injection, schedule: Q04DX003 (ip), vehicle: saline with Tween-80
[12] = dose: 100.0 mg/kg/injection, schedule: Q01DX009 (ip), vehicle: Klucel (hydroxypropylcellulose) (HPC)
[13] = dose: 400.0 mg/kg/injection, schedule: Q04DX002 (ip), vehicle: saline with Tween-80
[14] = dose: 30.0 mg/kg/injection, schedule: Q01DX001 (ip), vehicle: saline
[15] = dose: 60.0 mg/kg/injection, schedule: Q01DX001 (ip), vehicle: saline

CCCCC(=O)NN was tested, and the T/C (dose: 36.0 mg/kg/injection, schedule: Q01DX009 (ip), vehicle: saline with Tween-80) was 136 % of control, the T/C (dose: 50.0 mg/kg/injection, schedule: Q01DX009 (ip), vehicle: saline with Tween-80) was 128 % of control and the survivor count (dose: 100.0 mg/kg/injection, schedule: Q01DX009 (ip), vehicle: saline with Tween-80) was 6 of 6. The survivor count (dose: 160.0 mg/kg/injection, schedule: Q01DX009 (ip), vehicle: saline with Tween-80) was 2 of 6, the survivor count (dose: 166.0 mg/kg/injection, schedule: Q01DX009 (ip), vehicle: saline with Tween-80) was 0 of 6 and the survivor count [1] was 1 of 6. The survivor count [2] was 0 of 6.
For ClCc1ccc(-c2ccc(CCl)cc2)cc1, the survivor count (dose: 600.0 mg/kg/injection, schedule: Q01DX015 (ip), vehicle: carboxymethylcellulose (CMC)) was 6 of 6.
Cc1ccc(Nc2cc(=O)[nH]c(N)n2)cc1 was tested, and the survivor count [3] was 1 of 6.
With CN(C)C=Nc1ccc(Cl)cc1 the survivor count [4] was 0 of 4, the survivor count (dose: 200.0 mg/kg/injection, schedule: Q01DX001 (ip), vehicle: other) was 0 of 6 and the survivor count [5] was 0 of 4. The survivor count (dose: 400.0 mg/kg/injection, schedule: Q01DX001 (ip), vehicle: other) was 0 of 6 and the survivor count [6] was 0 of 4.
CCCCCC(=N\N=C(N)N)/C(C)=N/N=C(N)N was tested, and the survivor count (dose: 3.75 mg/kg/injection, schedule: Q01DX Z (ip), vehicle: saline) was 6 of 6, the survivor count (dose: 60.0 mg/kg/injection, schedule: Q01DX Z (ip), vehicle: saline) was 3 of 6 and the survivor count (dose: 120.0 mg/kg/injection, schedule: Q01DX Z (ip), vehicle: saline) was 0 of 6.
With CC(C)=NNC(=O)c1ccccn1 the survivor count [7] was 1 of 6 and 3 of 3 and the survivor count (dose: 200.0 mg/kg/injection, schedule: Q04DX003 (ip), vehicle: carboxymethylcellulose (CMC)) was 0 of 6.
In the case of CN(C)c1ccc2[nH]c(=O)c3ccccc3c2c1, the survivor count (dose: 150.0 mg/kg/injection, schedule: Q01DX001 (ip), vehicle: carboxymethylcellulose (CMC)) is reported as 3 of 6 and the survivor count (dose: 300.0 mg/kg/injection, schedule: Q01DX001 (ip), vehicle: carboxymethylcellulose (CMC)) is reported as 0 of 6.
With O=C(O)/C=C/C(=O)Nc1ccc(Br)c(Cl)c1 the survivor count [1] was 6 of 6 and the survivor count [2] was 0 of 6.
With CN(C)CCCN1c2ccccc2Sc2ccccc21 the T/C [8] was 125 % of control [5 of 6 alive], the survivor count [8] was 1 of 6 and the survivor count (dose: 150.0 mg/kg/injection, schedule: Q01DX001 (ip), vehicle: saline) was 2 of 6. For the same molecule, the survivor count (dose: 150.0 mg/kg/injection, schedule: Q01DX009 (ip), vehicle: saline) was 0 of 6, the survivor count (dose: 150.0 mg/kg/injection, schedule: Q04DX003 (ip), vehicle: saline) was 2 of 4 and the survivor count (dose: 300.0 mg/kg/injection, schedule: Q04DX003 (ip), vehicle: saline) was 0 of 4.
For O=C(O)C(=C(c1ccccc1)c1ccccc1)c1cccc2ccccc12, the survivor count [9] was 4 of 6 and the survivor count [10] was 0 of 6.
For CC(C)CNS(=O)(=O)c1ncnc2nc[nH]c12, the survivor count (dose: 100.0 mg/kg/injection, schedule: Q01DX Z (ip), vehicle: carboxymethylcellulose (CMC)) was 2 of 6.
N#Cc1cccc(C(=O)Cl)c1 was tested, and the survivor count [7] was 3 of 3, the survivor count (dose: 400.0 mg/kg/injection, schedule: Q01DX001 (ip), vehicle: carboxymethylcellulose (CMC)) was 0 of 3 and 3 of 6 and the survivor count (dose: 400.0 mg/kg/injection, schedule: Q01DX009 (ip), vehicle: carboxymethylcellulose (CMC)) was 1 of 3. The survivor count (dose: 400.0 mg/kg/injection, schedule: Q04DX002 (ip), vehicle: carboxymethylcellulose (CMC)) was 3 of 3 and 6 of 6 and the survivor count (dose: 400.0 mg/kg/injection, schedule: Q04DX003 (ip), vehicle: carboxymethylcellulose (CMC)) was 6 of 6.
For CC(C)(C)C(=O)CC(=O)C(C)(C)C, the survivor count [11] was 0 of 6.
O=C(CCCC(=O)N/N=C/c1ccc(Cl)cc1)N/N=C\c1ccc(Cl)cc1 was tested, and the survivor count (dose: 100.0 mg/kg/injection, schedule: Q01DX001 (ip), vehicle: other) was 4 of 4.
In the case of Cc1ccc(C)c(NC(=O)Oc2ccccc2F)c1, the survivor count [10] is reported as 0 of 6.
For Cc1cc(N(CCOS(C)(=O)=O)CCOS(C)(=O)=O)ccc1C=Nc1ccc(-c2csc(-c3ccc(Cl)cc3)n2)cc1, the survivor count [12] was 5 of 6.
CCCCCCCCCCCCCCNCCCCCCCCCCCCCC was tested, and the survivor count [9] was 0 of 6.
In the case of CCCCCCNC(C)=O, the survivor count [11] is reported as 0 of 6.
CNC(=O)c1cn(C2OC(CO)C(O)C2O)c2ncnc(N)c12 (stereo not given) was tested, and the T/C (dose: 100.0 mg/kg/injection, schedule: Q01DX001 (ip), vehicle: water) was 132 % of control, the T/C (dose: 132.0 mg/kg/injection, schedule: Q01DX001 (ip), vehicle: water) was 130 % of control and the T/C (dose: 200.0 mg/kg/injection, schedule: Q01DX001 (ip), vehicle: water) was 132 and 137 % of control [5 of 6 alive]. The T/C (dose: 300.0 mg/kg/injection, schedule: Q01DX001 (ip), vehicle: water) was 136 % of control.
For CCOC(=O)c1cnc(SC)nc1Nc1ccccc1Cl, the survivor count [11] was 6 of 6.
In the case of CC1=CC(=O)N(CO)C1=O, the survivor count (dose: 100.0 mg/kg/injection, schedule: Q04DX003 (ip), vehicle: water) is reported as 4 of 6.
For C[CH2][Hg][I], the survivor count (dose: 100.0 mg/kg/injection, schedule: Q04DX002 (ip), vehicle: saline with Tween-80) was 1 of 3 and 2 of 3, the survivor count (dose: 200.0 mg/kg/injection, schedule: Q04DX002 (ip), vehicle: saline with Tween-80) was 0 of 3 and the survivor count [13] was 0 of 3.
CCCCCCOC(=O)C(N)Cc1ccc(OC)c(N(CCCl)CCCl)c1 (stereo not given) was tested, and the survivor count (dose: 25.0 mg/kg/injection, schedule: Q01DX001 (ip), vehicle: saline) was 6 of 6, the survivor count [14] was 1 of 6 and the survivor count (dose: 50.0 mg/kg/injection, schedule: Q01DX001 (ip), vehicle: saline) was 0 of 6. For the same molecule, the survivor count [15] was 0 of 6, the survivor count (dose: 75.0 mg/kg/injection, schedule: Q01DX001 (sc), vehicle: carboxymethylcellulose (CMC)) was 2 of 6 and the survivor count [4] was 0 of 6. The survivor count (dose: 150.0 mg/kg/injection, schedule: Q01DX001 (sc), vehicle: carboxymethylcellulose (CMC)) was 0 of 6, the survivor count [5] was 0 of 6 and the survivor count (dose: 300.0 mg/kg/injection, schedule: Q01DX001 (sc), vehicle: carboxymethylcellulose (CMC)) was 0 of 6. The survivor count [6] was 0 of 6.
With CN(C)c1ccnc(SCc2ccc(Cl)cc2Cl)n1 the survivor count (dose: 100.0 mg/kg/injection, schedule: Q01DX Z (ip), vehicle: methylcellulose (MC)) was 6 of 6 and the survivor count [3] was 5 of 6.
CN1CCN(C(=O)CCCCCCCCC(Br)CBr)CC1 (stereo not given) was tested, and the survivor count [14] was 0 of 6 and the survivor count [15] was 0 of 6.
CS(=O)(=O)OCCN(CCOS(C)(=O)=O)c1ccc(/C=N/Nc2ccc([N+](=O)[O-])cc2[N+](=O)[O-])cc1 was tested, and the survivor count [5] was 6 of 6.
In the case of CCOC1(OCC)C(Cl)=C(Cl)C(Cl)=C1Cl, the survivor count [12] is reported as 0 of 3 and the survivor count (dose: 100.0 mg/kg/injection, schedule: Q04DX002 (ip), vehicle: Klucel (hydroxypropylcellulose) (HPC)) is reported as 2 of 3.
For O=C1OCCN1/N=C/c1ccc(Cl)cc1, the survivor count [13] was 3 of 3.

Reference: PubChem BioAssay AID248 (DTP/NCI, 2004)
